One assay addresses HA-tagged WT PP2Ac (UniProt P67775). The experiment in a line: co-IP; anti-HA–coupled magnetic beads, total lysates of N2a cells stably expressing HA-PP2Ac WT or L309Δ (EV control), overnight at 4 °C; Western blot for Fyn, HA, PP2Ac. For orientation: In western blotting, separated proteins are transferred to a membrane and probed.
Assay [1] addresses HA-tagged methylation site L309Δ PP2Ac mutant (UniProt P67775). The assay is described as above.
Assay [2] has as its target T1, Flag-tagged PP2A Bα (PPP2R2A) subunit (UniProt P63151).
T1 sequence: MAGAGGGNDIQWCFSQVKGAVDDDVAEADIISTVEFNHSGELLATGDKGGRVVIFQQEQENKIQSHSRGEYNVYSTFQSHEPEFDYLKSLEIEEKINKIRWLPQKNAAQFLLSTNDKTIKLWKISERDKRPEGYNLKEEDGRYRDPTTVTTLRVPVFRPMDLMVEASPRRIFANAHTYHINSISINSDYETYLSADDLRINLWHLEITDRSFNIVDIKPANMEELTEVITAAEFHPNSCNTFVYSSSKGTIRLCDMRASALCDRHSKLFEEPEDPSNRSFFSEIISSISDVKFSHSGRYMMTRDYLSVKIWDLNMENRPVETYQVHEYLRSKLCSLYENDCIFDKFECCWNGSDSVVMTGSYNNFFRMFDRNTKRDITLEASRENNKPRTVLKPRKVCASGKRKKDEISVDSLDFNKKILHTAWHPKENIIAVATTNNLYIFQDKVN
Description: co-IP; anti-Flag–coupled (M2) magnetic beads, total lysates of N2a cells coexpressing Flag–Bα and GFP–Fyn, overnight at 4 °C; Western blot for Fyn, PP2Ac, Bα.

Sequences of proteins named here, by UniProt entry; tags and fusion partners are left off. A change or cut given only in a name is not applied to a line headed by its entry. A line that says so, or that is headed by a name, gives the form on record, which may keep a tag or linker. Residues count along the entry.
UniProt P67775: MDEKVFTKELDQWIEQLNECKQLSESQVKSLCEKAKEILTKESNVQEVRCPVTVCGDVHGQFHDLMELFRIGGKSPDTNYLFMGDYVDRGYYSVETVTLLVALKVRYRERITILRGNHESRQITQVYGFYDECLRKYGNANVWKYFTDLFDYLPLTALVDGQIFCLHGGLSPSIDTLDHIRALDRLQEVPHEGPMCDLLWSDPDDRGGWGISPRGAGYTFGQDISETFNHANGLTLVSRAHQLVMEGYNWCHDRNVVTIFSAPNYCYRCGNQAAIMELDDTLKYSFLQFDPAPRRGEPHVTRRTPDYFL
HA-tagged methylation site L309Δ PP2Ac mutant: residues 1-308 of P67775
UniProt P39688: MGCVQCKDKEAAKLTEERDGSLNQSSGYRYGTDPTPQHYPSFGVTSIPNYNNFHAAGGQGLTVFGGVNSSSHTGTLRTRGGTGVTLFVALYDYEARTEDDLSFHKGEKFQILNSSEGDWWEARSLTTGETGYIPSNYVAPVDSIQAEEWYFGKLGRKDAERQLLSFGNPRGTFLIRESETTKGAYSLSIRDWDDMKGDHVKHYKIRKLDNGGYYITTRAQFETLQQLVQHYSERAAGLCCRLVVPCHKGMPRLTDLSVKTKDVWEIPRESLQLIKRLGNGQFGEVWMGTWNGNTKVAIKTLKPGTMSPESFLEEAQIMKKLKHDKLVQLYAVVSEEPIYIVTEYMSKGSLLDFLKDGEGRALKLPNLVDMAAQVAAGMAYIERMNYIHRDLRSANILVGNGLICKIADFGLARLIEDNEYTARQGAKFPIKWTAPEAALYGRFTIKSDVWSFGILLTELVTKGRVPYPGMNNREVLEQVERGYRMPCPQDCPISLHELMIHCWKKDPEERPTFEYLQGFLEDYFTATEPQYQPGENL
UniProt P06241: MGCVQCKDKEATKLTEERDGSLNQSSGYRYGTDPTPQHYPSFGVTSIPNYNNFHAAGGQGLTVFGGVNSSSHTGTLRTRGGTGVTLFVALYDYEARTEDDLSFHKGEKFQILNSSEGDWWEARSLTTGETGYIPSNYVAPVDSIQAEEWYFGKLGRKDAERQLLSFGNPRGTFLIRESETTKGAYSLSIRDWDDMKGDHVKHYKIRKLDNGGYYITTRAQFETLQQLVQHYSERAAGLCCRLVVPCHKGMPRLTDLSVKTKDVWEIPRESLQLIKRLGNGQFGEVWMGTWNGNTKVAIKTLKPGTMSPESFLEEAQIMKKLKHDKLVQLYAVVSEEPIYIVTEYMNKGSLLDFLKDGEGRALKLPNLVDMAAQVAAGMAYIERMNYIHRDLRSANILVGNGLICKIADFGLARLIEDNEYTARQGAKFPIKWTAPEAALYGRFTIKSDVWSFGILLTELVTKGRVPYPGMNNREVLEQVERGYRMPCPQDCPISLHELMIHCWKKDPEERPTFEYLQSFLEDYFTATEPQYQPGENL

Results are given in words; binding and its absence hold for the method and conditions named. In cells and extracts the contact can be indirect. Some entries that bind do so weakly or less than the wild type. For part of these data: Where a sequence is shown, tags or fusion partners need not be part of it.

With “Fyn (endogenous) (from UniProt P39688 1-537)”, the binding result in the assay with HA-tagged WT PP2Ac is given as “binds”; in assay [1] it was “no binding”.
“GFP-tagged human Fyn (from UniProt P06241 1-537)”: the binding result in assay [2] was “binds”.

For the origin of these results see article PMC7948947.
